In publication PMC10348947, “Catalytic antibodies in arrhythmogenic cardiomyopathy patients cleave desmoglein 2 and N-cadherin and impair cardiomyocyte cohesion” (Cellular and Molecular Life Sciences: CMLS, 2023):
These are yes or no findings as the source states them, for the method shown. Some binding calls cover weakened binding; strength is not graded here. Sequences can lack the tags named with a protein.

Molecular target: T1, Recombinant human desmoglein 2 extracellular domain tagged with Fc fragment (DSG2-Fc) (human), Q14126
T1 chain: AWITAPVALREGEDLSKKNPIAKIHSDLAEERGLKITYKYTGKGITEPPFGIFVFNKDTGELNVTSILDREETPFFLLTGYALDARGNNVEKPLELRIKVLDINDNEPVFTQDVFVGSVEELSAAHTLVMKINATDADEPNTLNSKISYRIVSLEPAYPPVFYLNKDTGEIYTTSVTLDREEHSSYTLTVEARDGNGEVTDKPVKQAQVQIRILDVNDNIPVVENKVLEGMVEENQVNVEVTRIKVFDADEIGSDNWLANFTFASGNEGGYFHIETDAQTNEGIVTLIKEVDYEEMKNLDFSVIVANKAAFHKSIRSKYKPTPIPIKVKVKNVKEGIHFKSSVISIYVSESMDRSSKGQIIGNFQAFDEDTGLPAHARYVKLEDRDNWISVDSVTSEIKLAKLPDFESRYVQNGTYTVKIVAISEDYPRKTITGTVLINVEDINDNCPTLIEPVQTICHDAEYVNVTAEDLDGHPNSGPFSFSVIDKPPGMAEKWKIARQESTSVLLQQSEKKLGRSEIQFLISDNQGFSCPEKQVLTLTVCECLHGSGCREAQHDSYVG
Test: atomic force microscopy (cell-free force spectroscopy); the same Fc construct covalently linked via a PEG linker to the AFM tip and to the mica sheet; 37 °C; HBSS buffer; loading force 0.3 nN, contact delay 0.1 s, retraction velocity 1 µm/s; 1000 force-distance curves for the baseline trans-interaction probability, then 1 h with patient or control IgG (1:50); both purified
Conditions: remark: other sources report otherwise

B1: Recombinant human desmoglein 2 extracellular domain tagged with Fc fragment (DSG2-Fc), Q14126 50-609 (Fc fusion)
chain: T1 chain
How did the binding turn out when B1 was run?
Its binding is “binds”.
